Changes are numbered by the printed parent chain. These are yes or no findings as the source states them, for the method shown. Binding seen in cells or lysates may run through a third protein. Some results given as binding are weak or reduced against the parent protein; the word gives no strength. For some of these results: Where a sequence is shown, tags or fusion partners need not be part of it.

The chains behind the UniProt entries cited, without tags or fusion partners.
UniProt Q96SB4: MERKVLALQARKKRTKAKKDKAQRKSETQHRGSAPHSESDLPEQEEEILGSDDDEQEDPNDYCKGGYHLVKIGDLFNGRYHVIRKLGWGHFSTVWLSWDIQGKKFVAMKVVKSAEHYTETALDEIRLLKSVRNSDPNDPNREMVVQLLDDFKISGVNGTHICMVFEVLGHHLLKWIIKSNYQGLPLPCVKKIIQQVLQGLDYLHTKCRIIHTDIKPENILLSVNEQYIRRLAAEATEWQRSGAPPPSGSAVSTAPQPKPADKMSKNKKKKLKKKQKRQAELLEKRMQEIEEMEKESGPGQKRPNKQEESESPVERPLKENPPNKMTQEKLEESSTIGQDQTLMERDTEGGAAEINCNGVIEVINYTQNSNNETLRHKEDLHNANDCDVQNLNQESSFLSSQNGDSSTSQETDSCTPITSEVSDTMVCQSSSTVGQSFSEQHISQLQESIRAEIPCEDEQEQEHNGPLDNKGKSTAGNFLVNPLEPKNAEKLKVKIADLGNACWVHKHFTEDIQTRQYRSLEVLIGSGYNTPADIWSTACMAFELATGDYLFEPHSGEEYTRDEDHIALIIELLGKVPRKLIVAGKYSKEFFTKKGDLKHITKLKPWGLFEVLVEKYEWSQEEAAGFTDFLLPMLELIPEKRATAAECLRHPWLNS
UniProt P01106: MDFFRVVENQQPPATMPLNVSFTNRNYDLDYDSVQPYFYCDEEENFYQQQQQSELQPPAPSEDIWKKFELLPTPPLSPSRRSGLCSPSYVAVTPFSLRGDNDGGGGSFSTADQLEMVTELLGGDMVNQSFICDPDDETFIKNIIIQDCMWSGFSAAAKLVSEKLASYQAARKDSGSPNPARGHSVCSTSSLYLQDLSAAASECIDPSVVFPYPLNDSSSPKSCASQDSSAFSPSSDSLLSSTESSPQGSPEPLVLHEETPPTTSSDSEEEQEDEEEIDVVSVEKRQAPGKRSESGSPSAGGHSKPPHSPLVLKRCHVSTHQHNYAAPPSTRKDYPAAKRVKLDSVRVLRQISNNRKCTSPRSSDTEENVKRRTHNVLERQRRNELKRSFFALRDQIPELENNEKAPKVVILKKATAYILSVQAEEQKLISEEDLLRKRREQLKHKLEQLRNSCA

The record followed here is PMC9918503.

Experiment [1] concerns the target T1, HA-tag-CTDNEP1 (D425 cells) (UniProt O95476).
T1 sequence: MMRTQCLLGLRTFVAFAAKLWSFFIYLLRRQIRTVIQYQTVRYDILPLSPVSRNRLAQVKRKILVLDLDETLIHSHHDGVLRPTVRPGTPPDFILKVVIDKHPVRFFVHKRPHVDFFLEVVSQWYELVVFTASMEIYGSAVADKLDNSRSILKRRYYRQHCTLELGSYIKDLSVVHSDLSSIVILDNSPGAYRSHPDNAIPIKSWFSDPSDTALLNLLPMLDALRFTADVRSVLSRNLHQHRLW
Briefly: co-IP; D425 cells transduced with control or lentivirus expressing HA-tag-CTDNEP1; 4-h MG132 treatment (Fig. 3l); immunoblots.

Experiment [2] concerns the target T2, HA-tagged CTDNEP1 (HeLa cells) (UniProt O95476).
T2 sequence: T1 sequence
Briefly: proximity ligation; PLA in HeLa cells expressing HA-tagged CTDNEP1 or CTDNEP1-D69N; signal at the nuclear periphery.

In experiment [3] the target is T3, CTDNEP1-D69N (HeLa cells) (UniProt O95476).
T3 sequence: T1 sequence with D69N
The description is as above.

“SRPK1 (D425 cells) (from UniProt Q96SB4 1-655)”: the binding entry in experiment [1] is reported as “binds”.
“MYC (HeLa cells) (from UniProt P01106 1-454)”: the binding result in experiment [2] and in experiment [3] was “binds” in each case.
As to “MYC (D425 cells) (from UniProt P01106 1-454)”, the binding entry in experiment [1] is “binds”.
